Values from PubChem BioAssay AID504784 (Drosophila RNAi Screening Center, 2011).

Test: 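Search for regulators of lipid droplet storage in oleate-fed fly cells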 (primary screen)
System: Drosophila Kc167 embryonic cells
Reagents: long dsRNA against Drosophila genes, about 250 ng dsRNA per well
Duration: 4 days
Challenge: cells fed 400 µM oleic acid bound to BSA
Detection: 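Cells imaged and segmented; ratio of lipid droplet area to nuclear area, log-transformed, then normalised as a B-score over the screen; higher means more stored lipid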
Direction: droplet/nuclear area B-score: higher = more stored lipid (overstorage)
The deposit covers about 17,000 reagents; this is an unselected part of those with a known target gene and a result. 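Each column is one replicate's B-score; the combined score over replicates was not deposited, so single values may mislead.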 Names joined by + are all predicted targets of the reagent. Further read-outs or replicates are left out here.

CG12911 [DRSC06226] scored droplet/nuclear area B-score, replicate 1 = -0.487.
Depletion of Mst98Ca (Male-specific RNA 98Ca) [DRSC16749] resulted in: droplet/nuclear area B-score, replicate 1 = -2.7.
For CG4576 [DRSC15604], the values are droplet/nuclear area B-score, replicate 1 = 0.109.
Against mei-41 (meiotic 41) [DRSC20350] the deposit lists droplet/nuclear area B-score, replicate 1 = 0.376.
Silencing of CG32225 [DRSC09657] came out at: droplet/nuclear area B-score, replicate 1 = 0.00719.
Depletion of CG8299 [DRSC07139] came out at: droplet/nuclear area B-score, replicate 1 = 0.614.
With knock-down of CG7298 [DRSC10802] the results were droplet/nuclear area B-score, replicate 1 = 0.0253.
With knock-down of CG15141 [DRSC02441] the results were droplet/nuclear area B-score, replicate 1 = 0.235.
Silencing of CG15141 [DRSC02442] gave: droplet/nuclear area B-score, replicate 1 = -1.58.
For Muc68D (Mucin 68D) [DRSC10569] the deposit lists droplet/nuclear area B-score, replicate 1 = -2.07.
With knock-down of ND-B17.2 (NADH dehydrogenase (ubiquinone) B17.2 subunit) [DRSC00577], the screen gave droplet/nuclear area B-score, replicate 1 = -0.537.
Silencing of CG6885 [DRSC10740] resulted in: droplet/nuclear area B-score, replicate 1 = 0.982.
MED19 (Mediator complex subunit 19) [DRSC10516] showed droplet/nuclear area B-score, replicate 1 = -3.14.
With knock-down of nerfin-2 (nervous fingers 2) [DRSC14547], the record shows droplet/nuclear area B-score, replicate 1 = -0.384.
nbs [DRSC11373] gave droplet/nuclear area B-score, replicate 1 = -0.052.
Against CR14499 (retired record) [DRSC06470], the values are droplet/nuclear area B-score, replicate 1 = 0.46.
EMC6 (ER membrane protein complex subunit 6) [DRSC14386] gave droplet/nuclear area B-score, replicate 1 = -1.04.
CG4325 [DRSC18516] scored droplet/nuclear area B-score, replicate 1 = -1.98.
For CG4325 [DRSC23171], the entry reads droplet/nuclear area B-score, replicate 1 = 1.02.
Taf12 (TBP-associated factor 12) [DRSC16879] showed droplet/nuclear area B-score, replicate 1 = 8.02.

Looked up above:
MED19 (Mediator complex subunit 19) [DRSC10516], droplet/nuclear area B-score, replicate 1: -3.14
Under “droplet/nuclear area B-score, replicate 1”, CG8299 [DRSC07139] is entered as 0.614
Under “droplet/nuclear area B-score, replicate 1”, CG12911 [DRSC06226] shows -0.487
Result for ND-B17.2 (NADH dehydrogenase (ubiquinone) B17.2 subunit) [DRSC00577] under “droplet/nuclear area B-score, replicate 1”: -0.537
nbs [DRSC11373], droplet/nuclear area B-score, replicate 1 → -0.052
Entry for Muc68D (Mucin 68D) [DRSC10569] in “droplet/nuclear area B-score, replicate 1”: -2.07

Additional results:
For CG1486 [DRSC20508], the values are droplet/nuclear area B-score, replicate 1 = -0.00184.
CG5569 [DRSC04514] showed droplet/nuclear area B-score, replicate 1 = -0.189.
After knock-down of Tdc2 (Tyrosine decarboxylase 2) [DRSC04999], the screen gave droplet/nuclear area B-score, replicate 1 = 1.56.
After knock-down of CR18275 (pseudo) [DRSC18151] the results were droplet/nuclear area B-score, replicate 1 = -0.631.
CG4781 [DRSC04488] gave droplet/nuclear area B-score, replicate 1 = 0.153.
tplus3a + tplus3b [DRSC03687] gave droplet/nuclear area B-score, replicate 1 = -0.325.
With knock-down of CG7920 [DRSC16346] the results were droplet/nuclear area B-score, replicate 1 = -0.018.
CG7920 [DRSC21594] showed droplet/nuclear area B-score, replicate 1 = 0.0429.
Against CG33474 [DRSC05218], the values are droplet/nuclear area B-score, replicate 1 = -0.37.
Silencing of MetRS (Methionyl-tRNA synthetase) [DRSC22533] gave: droplet/nuclear area B-score, replicate 1 = -0.00933.
Against msl-1 (male-specific lethal 1) [DRSC03573], the values are droplet/nuclear area B-score, replicate 1 = -1.55.
With knock-down of Mppe (Metallophosphoesterase) [DRSC07296], the record shows droplet/nuclear area B-score, replicate 1 = 0.12.
JMJD7 (Jumonji domain containing 7) [DRSC09703] showed droplet/nuclear area B-score, replicate 1 = 1.64.
With knock-down of mi (minus) [DRSC04498] the results were droplet/nuclear area B-score, replicate 1 = -1.74.
CG9393 [DRSC16486] scored droplet/nuclear area B-score, replicate 1 = 0.617.
Silencing of Adk1 (Adenosine kinase 1) [DRSC15514] resulted in: droplet/nuclear area B-score, replicate 1 = 1.22.
Galk (Galactokinase) [DRSC10500] scored droplet/nuclear area B-score, replicate 1 = -0.24.
Against Myb (Myb oncogene-like) [DRSC20260] the deposit lists droplet/nuclear area B-score, replicate 1 = 1.43.
CG14757 [DRSC06492] scored droplet/nuclear area B-score, replicate 1 = -1.13.
After knock-down of CG18577 [DRSC15352], the record shows droplet/nuclear area B-score, replicate 1 = -0.214.
